In the supplement of paper PMC10849652:
The list shows a part of the results. Residues, ends and D or L forms follow the SMILES beside them. *: point of attachment. Cbz = O=C(OCc1ccccc1)*

Sequences of proteins named here, by UniProt entry; tags and fusion partners are left off. A change or cut given only in a name is not applied to a line headed by its entry.
UniProt P49591: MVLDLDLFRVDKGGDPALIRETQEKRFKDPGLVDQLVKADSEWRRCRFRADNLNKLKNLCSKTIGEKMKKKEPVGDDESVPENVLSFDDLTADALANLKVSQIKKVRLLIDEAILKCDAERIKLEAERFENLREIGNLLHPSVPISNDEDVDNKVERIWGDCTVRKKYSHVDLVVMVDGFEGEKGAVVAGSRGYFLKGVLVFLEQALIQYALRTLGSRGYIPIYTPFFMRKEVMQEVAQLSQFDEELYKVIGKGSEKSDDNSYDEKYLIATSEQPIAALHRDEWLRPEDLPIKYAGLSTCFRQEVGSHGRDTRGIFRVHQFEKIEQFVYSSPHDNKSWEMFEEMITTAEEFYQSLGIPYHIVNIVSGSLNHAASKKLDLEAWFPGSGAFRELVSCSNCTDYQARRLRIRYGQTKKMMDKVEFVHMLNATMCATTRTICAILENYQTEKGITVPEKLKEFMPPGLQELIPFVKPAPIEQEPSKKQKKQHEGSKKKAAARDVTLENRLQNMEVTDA

What was measured:
Assay in all cases: log2 fold change, soluble protein after heating vs DMSO (PISA); higher = thermal stabilisation; K562 cells, 10 uM, 30 min; active = over 0.2 and 3.5 SD of the protein, either way, in both replicates (recomputed)
[1] = compound: C#Cc1cccc(Nc2ncnc3cc(OCCOC)c(OCCOC)cc23)c1 [erlotinib]
Method in brief: (§1)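 Soluble protein was defined as the supernatant after 21,000xg for 90 min. It came from K562 cells at 2×10^6 cells/mL given 10 μM compound for 30 min, heated in aliquots for 3 min across 48°C-58°C, pooled, and extracted in PBS with 0.5% NP-40 at 4°C, and was quantified by TMTpro 16plex LC-MS/MS with equalised channel sums. Thermal stability against control samples, from duplicates, is reported as log2 fold change.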

[2] = compound: C/C(=N\NC(=O)C1=CC(=CC=C1)S(=O)(=O)N2CCOCC2)/C3=C(C=CC(=C3)Cl)O
Method in brief: as §1

[3] = compound: C1=CC(=C(C=C1Cl)C2=NC3=NC=CN=C3C(=N2)NC4=CC=NC=C4)F
Method in brief: as §1

[4] = compound: C1=CC(=CC=C1C2=NC3=C(N2)C=C(C=C3)C(=O)N)OC4=CC=C(C=C4)Cl
Method in brief: as §1

[5] = compound: C1=CC2=C(C=CC(=C2)/C=C\3/C(=O)NC(=NCC4=CC=CS4)S3)N=C1
Method in brief: as §1

[6] = compound: C1=CC2=NC=CN=C2C=C1/C=C/3\C(=O)NC(=O)S3
Method in brief: as §1

[7] = compound: C1=CC=C(C=C1)C2=NC(=C(N2)C3=CC=NC=C3)C4=CC(=C(C=C4)Cl)O
Method in brief: as §1

[8] = compound: C1=CC=C(C=C1)[C@H](COC2=CC3=C(C=C2)NC(=O)N3)NC(=O)C4=CC=CN(C4=O)CC5=CC(=C(C=C5)F)F
Method in brief: as §1

[9] = compound: C1=CC=C2C(=C1)C3=NNC4=CC=CC(=C43)C2=O
Method in brief: as §1

[10] = compound: C1CCN(C1)C(=O)NC2=CC=CC(=C2)NC3=NC=C(C(=N3)NCCC4=CN=CN4)Br
Method in brief: as §1

[11] = compound: C1CN(CCC1(CC2=CC=C(C=C2)Cl)N)C3=NC=NC4=C3C=CN4
Method in brief: as §1

[12] = compound: C1COCCN1CCN2C3=CC=CC=C3N=C2NC(=O)C4=CC(=CC=C4)[N+](=O)[O-] [IRAK-1-4 Inhibitor I]
Method in brief: as §1

[13] = compound: C=CC(=O)N1CCC[C@@H](n2nc(-c3ccc(Oc4ccccc4)cc3)c3c(N)ncnc32)C1 [ibrutinib]
Method in brief: as §1

[14] = compound: CC(=O)c1cnc2ccc(-c3cc(Cl)c(O)c(Cl)c3)nc2c1N[C@H]1CC[C@H](CN(C)C)CC1
Method in brief: as §1

[15] = compound: CC(C)(C)Cn1c(N)nc2ccc(-c3[nH]c(C(C)(C)C)nc3-c3ccc(F)cc3)nc21 [ralimetinib]
Method in brief: as §1

[16] = compound: CC(C)(O)CC(=O)NCCn1ccc2ncnc(Nc3ccc(Oc4cccc(C(F)(F)F)c4)c(Cl)c3)c21
Method in brief: as §1

[17] = compound: CC(C)C1=C2N=C(C=C(N2N=C1)NCC3=CC=CC=C3)NCCCCCCN
Method in brief: as §1

[18] = compound: CC(C)C[C@@H](C=O)NC(=O)[C@H](CC(C)C)NC(=O)[C@H](CC(C)C)NC(=O)OCc1ccccc1
Method in brief: as §1

[19] = compound: CC(C)N(C[C@H]1O[C@@H](n2cnc3c(N)ncnc32)[C@H](O)[C@@H]1O)[C@H]1C[C@@H](CCc2nc3cc(C(C)(C)C)ccc3[nH]2)C1 [pinometostat]
Method in brief: as §1

[20] = compound: CC1=C(C(CC(=O)N1)C2=CC=C(C=C2)C(F)(F)F)C(=O)NC3=C(C=C4C(=C3)C=NN4)F
Method in brief: as §1

[21] = compound: CC1=C(C2=C(C=C1)C(=O)C3=CC=CC=C3N2CCCN)C
Method in brief: as §1

[22] = compound: CC1=C(C=C(C=C1)NC(=O)C2=CC(=CC=C2)C(C)(C)C#N)NC3=CC4=C(C=C3)N=CN(C4=O)C
Method in brief: as §1

[23] = compound: CC1=C(C=C(C=C1)NC(=O)C2=CC(=CC=C2)N(C)C)NC(=O)C3=CC=C(C=C3)O
Method in brief: as §1

[24] = compound: CC1=C(SC2=C1C(=N[C@H](C3=NN=C(N32)C)CC(=O)N)C4=CC=C(C=C4)Cl)C
Method in brief: as §1

[25] = compound: CC1=C2C(=CC=C1)N=C(N(C2=O)C3=CC=CC=C3C)CN4C=NC5=C(N=CN=C54)N
Method in brief: as §1

[26] = compound: CC1=CC=C(C=C1)SC2=C3C=C(SC3=CN=C2)C(=O)N
Method in brief: as §1

[27] = compound: CC1=NC(=CC=C1)C2=C(N=C(N2)C(C)(C)C)C3=CC4=NC=CN=C4C=C3
Method in brief: as §1

[28] = compound: CCCCN(Cc1ccc(C(=O)NO)cc1)C(=O)Nc1ccccc1 [Nexturastat A]
Method in brief: as §1

[29] = compound: CCCS(=O)(=O)Nc1ccc(F)c(C(=O)c2c[nH]c3ncc(-c4ccc(Cl)cc4)cc23)c1F [vemurafenib]
Method in brief: as §1

[30] = compound: CCCS(=O)(=O)Nc1ccc(F)c(C(=O)c2c[nH]c3ncc(Cl)cc23)c1F
Method in brief: as §1

[31] = compound: CCCc1cc(C)[nH]c(=O)c1CNC(=O)c1cc(-c2ccnc(N3CCN(C)CC3)c2)cc2c1cnn2C(C)C
Method in brief: as §1

[32] = compound: CCN(CC)Cc1ccc2cc(COC(=O)Nc3ccc(C(=O)NO)cc3)ccc2c1 [givinostat]
Method in brief: as §1

[33] = compound: CCN(CCCOc1ccc2c(Nc3cc(CC(=O)Nc4cccc(F)c4)[nH]n3)ncnc2c1)CCOP(=O)(O)O [barasertib]
Method in brief: as §1

[34] = compound: CC[C@@H]1C(=O)N(C)c2cnc(Nc3ccc(C(=O)NC4CCN(C)CC4)cc3OC)nc2N1C1CCCC1
Method in brief: as §1

[35] = compound: CC[C@@H]1C(=O)N(C)c2cnc(Nc3ccc(C(=O)N[C@H]4CC[C@H](N5CCN(CC6CC6)CC5)CC4)cc3OC)nc2N1C(C)C [volasertib]
Method in brief: as §1

[36] = compound: CC[C@H](C)N1C=C(C2=C(C=C(C=C21)C3=CN=C(C=C3)N4CCNCC4)C(=O)NCC5=C(C=C(NC5=O)C)C)C
Method in brief: as §1

[37] = compound: CC[C@H](C)[C@@H](C(=O)N[C@@H]([C@@H](C)O)C(=O)N[C@@H](CC(C)C)C(=O)[C@]1(CO1)C)NC(=O)[C@H]([C@@H](C)CC)N(C)C(=O)C [epoxomicin]
Method in brief: as §1

[38] = compound: CCn1c(C(=O)N(C2CC2)C2CC2)cc2c3c(ncn3C)c(Nc3cc(C)n(C)n3)nc21
Method in brief: as §1

[39] = compound: CCn1cc(-c2ccnc3[nH]c(-c4cccc(CN(C)C)c4)cc23)c(-c2ccc(NC(=O)N(C)C)cc2)n1
Method in brief: as §1

[40] = compound: CN(C)CC(=O)Nc1ccc2[nH]c(=O)c3ccccc3c2c1
Method in brief: as §1

[41] = compound: CN(CCOC1=CC=C(C=C1)C[C@H]2C(=O)NC(=O)S2)C3=CC=CC=N3 (racemic) [rosiglitazone]
Method in brief: as §1

[42] = compound: CN1C2=C(C3=C1C(=O)N(N=C3)CC4=CC(=CC=C4)N)SC(=C2)S(=O)C
Method in brief: as §1

[43] = compound: CN1CCC(CNc2ccc3ncc(-c4cccc(OC(F)(F)F)c4)n3n2)CC1
Method in brief: as §1

[44] = compound: CN1CCN(CCOc2cc(OC3CCOCC3)c3c(Nc4c(Cl)ccc5c4OCO5)ncnc3c2)CC1 [saracatinib]
Method in brief: as §1

[45] = compound: CN1CCN(c2nc(C3=C(c4c[nH]c5ccccc45)C(=O)NC3=O)c3ccccc3n2)CC1 [sotrastaurin]
Method in brief: as §1

[46] = compound: CN1CC[C@H](c2c(O)cc(O)c3c(=O)cc(-c4ccccc4Cl)oc23)[C@H](O)C1 [alvocidib]
Method in brief: as §1

[47] = compound: CN1CCc2c(c3ccccc3n2Cc2ccc(C(=O)NO)cc2)C1 [Tubastatin A]
Method in brief: as §1

[48] = compound: CNC(=O)C1=CC=CC=C1NC2=NC(=NC=C2Cl)NC3=C(C=C(C=C3)N4CCOCC4)OC
Method in brief: as §1

Measured: log2 fold change

SARS (UniProt P49591)
inactive: [1] 0.008 | [2] 0.013 | [3] 0.046 | [4] -0.02 | [5] -0.017 | [6] -0.009 | [7] 0.038 | [8] 0.013 | [9] 0.014 | [10] 0.019 | [11] 0.009 | [12] 0.009 | [13] 0.015 | [14] 0.031 | [15] -0.049 | [16] -0.015 | [17] 0.018 | [18] -0.006 | [19] -0.067 | [20] 0.001 | [21] -0.015 | [22] 0.008 | [23] -0.025 | [24] 0.024 | [25] 0.019 | [26] 0.011 | [27] 0.045 | [28] -0.075 | [29] 0.01 | [30] 0.023 | [31] -0.02 | [32] -0.011 | [33] -0.021 | [34] -0.015 | [35] 0.035 | [36] -0.01 | [37] 0.033 | [38] 0.003 | [39] 0.019 | [40] 0.006 | [41] 0.02 | [42] -0.063 | [43] -0.03 | [44] 0.024 | [45] 0.01 | [46] -0.017 | [47] 0.004 | [48] 0.022
